We go through 9 substances from article PMC8786784.

Sequences of proteins named here, by UniProt entry; tags and fusion partners are left off.
UniProt Q9Y2J2: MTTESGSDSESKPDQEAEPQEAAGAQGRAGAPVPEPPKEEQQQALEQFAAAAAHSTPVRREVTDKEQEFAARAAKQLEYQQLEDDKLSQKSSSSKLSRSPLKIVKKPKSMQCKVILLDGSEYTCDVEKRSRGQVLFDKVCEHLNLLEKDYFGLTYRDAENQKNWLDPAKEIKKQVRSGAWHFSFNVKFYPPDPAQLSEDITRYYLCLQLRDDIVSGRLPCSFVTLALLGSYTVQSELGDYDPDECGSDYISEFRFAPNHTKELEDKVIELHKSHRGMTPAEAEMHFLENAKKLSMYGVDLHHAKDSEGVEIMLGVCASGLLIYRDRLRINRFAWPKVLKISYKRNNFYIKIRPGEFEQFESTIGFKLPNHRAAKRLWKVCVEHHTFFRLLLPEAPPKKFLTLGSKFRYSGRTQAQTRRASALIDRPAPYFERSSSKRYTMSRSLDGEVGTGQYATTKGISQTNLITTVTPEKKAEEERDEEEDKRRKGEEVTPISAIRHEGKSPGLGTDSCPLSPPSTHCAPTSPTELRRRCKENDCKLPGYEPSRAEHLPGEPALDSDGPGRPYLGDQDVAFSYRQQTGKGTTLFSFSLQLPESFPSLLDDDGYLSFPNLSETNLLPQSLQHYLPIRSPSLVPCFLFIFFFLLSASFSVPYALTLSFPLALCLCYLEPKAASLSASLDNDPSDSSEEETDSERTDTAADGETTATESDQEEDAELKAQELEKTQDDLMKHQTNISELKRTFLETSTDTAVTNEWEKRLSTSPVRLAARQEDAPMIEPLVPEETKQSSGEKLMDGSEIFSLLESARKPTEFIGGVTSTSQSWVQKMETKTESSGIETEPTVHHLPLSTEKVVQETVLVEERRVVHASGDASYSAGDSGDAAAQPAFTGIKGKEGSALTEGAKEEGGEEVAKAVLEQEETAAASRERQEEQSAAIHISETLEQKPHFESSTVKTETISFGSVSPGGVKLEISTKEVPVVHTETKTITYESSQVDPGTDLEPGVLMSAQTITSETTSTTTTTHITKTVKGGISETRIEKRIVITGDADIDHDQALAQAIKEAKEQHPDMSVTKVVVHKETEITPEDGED
UniProt O43813: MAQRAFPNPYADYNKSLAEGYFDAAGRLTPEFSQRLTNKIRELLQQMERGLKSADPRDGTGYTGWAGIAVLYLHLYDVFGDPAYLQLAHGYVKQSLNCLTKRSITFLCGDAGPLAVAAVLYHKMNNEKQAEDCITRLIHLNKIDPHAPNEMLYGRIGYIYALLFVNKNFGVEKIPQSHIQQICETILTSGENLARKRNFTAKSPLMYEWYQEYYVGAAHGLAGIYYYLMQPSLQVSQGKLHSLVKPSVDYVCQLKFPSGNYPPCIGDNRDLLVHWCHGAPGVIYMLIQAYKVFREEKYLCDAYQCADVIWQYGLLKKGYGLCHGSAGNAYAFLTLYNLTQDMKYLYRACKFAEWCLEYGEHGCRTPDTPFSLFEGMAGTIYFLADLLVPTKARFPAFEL
UniProt P78559: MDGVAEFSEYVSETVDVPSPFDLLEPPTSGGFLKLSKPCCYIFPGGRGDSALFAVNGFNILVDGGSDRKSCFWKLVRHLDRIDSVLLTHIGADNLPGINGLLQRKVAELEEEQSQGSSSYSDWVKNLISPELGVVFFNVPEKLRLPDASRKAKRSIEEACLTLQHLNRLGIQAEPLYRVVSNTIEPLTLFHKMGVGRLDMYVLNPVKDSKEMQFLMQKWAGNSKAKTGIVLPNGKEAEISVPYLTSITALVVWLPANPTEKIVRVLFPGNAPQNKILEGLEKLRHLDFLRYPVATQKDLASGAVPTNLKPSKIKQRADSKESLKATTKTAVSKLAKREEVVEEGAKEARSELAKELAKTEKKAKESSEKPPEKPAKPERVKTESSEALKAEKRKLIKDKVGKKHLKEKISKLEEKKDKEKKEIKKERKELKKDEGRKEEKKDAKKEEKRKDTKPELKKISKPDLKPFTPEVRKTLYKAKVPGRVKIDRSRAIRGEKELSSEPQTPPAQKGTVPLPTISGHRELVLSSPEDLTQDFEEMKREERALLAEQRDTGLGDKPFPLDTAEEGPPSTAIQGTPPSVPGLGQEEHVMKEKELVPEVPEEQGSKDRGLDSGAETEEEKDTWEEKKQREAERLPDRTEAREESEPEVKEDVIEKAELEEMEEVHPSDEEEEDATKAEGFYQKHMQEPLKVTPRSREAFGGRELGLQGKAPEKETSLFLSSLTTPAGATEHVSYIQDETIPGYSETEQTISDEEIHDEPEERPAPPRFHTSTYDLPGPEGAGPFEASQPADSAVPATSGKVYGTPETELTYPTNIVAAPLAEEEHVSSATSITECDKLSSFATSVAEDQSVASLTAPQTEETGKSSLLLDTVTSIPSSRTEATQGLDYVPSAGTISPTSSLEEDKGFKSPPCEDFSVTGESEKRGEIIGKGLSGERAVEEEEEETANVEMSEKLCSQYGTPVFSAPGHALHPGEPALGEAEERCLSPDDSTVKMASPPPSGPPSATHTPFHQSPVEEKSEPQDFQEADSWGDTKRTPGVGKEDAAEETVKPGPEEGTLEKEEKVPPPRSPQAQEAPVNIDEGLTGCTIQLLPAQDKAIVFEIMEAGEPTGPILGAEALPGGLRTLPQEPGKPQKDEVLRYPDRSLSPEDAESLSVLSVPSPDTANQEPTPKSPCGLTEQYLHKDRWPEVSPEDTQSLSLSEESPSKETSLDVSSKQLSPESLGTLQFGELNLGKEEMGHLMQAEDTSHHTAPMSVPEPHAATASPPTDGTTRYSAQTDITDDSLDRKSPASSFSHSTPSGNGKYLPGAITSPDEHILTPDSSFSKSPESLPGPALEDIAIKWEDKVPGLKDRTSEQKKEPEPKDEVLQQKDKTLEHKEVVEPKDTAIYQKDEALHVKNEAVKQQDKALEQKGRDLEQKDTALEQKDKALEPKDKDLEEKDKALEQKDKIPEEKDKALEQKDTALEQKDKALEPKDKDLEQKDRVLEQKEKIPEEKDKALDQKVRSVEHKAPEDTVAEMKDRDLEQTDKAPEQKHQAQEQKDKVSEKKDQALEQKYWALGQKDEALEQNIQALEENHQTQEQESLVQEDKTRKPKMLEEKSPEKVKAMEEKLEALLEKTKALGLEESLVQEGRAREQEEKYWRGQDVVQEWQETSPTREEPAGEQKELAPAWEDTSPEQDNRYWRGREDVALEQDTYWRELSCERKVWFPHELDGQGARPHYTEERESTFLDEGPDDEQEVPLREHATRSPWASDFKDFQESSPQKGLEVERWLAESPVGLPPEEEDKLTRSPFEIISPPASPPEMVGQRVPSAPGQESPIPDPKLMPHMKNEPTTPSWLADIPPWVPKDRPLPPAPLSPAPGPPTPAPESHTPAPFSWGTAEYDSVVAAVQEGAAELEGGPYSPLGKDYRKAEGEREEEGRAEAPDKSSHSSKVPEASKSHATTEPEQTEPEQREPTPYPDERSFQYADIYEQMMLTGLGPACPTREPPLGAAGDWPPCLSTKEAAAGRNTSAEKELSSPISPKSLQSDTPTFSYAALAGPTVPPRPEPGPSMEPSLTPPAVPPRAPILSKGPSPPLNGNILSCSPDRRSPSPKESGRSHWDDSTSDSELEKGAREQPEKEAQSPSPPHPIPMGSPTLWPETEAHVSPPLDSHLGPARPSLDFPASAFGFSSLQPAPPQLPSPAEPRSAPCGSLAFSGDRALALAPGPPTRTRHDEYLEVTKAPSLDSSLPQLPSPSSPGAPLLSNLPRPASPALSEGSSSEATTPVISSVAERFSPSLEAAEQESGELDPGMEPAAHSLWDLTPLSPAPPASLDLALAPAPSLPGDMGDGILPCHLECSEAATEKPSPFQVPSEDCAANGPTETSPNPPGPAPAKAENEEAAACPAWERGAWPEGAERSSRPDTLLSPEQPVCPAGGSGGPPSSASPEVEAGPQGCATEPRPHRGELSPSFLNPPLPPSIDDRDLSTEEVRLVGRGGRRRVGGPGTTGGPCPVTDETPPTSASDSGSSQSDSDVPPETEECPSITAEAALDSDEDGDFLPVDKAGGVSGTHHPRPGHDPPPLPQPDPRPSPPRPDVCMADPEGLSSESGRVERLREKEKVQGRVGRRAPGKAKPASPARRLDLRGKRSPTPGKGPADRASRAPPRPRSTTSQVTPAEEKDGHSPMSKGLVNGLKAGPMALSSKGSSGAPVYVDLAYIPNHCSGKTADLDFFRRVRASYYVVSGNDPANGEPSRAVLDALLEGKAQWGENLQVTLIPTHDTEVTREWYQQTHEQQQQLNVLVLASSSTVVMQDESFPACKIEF
UniProt P60520: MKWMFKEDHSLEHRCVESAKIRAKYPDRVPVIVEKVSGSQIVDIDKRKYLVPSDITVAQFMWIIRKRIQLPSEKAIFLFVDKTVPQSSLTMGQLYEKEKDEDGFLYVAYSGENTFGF
UniProt P12235: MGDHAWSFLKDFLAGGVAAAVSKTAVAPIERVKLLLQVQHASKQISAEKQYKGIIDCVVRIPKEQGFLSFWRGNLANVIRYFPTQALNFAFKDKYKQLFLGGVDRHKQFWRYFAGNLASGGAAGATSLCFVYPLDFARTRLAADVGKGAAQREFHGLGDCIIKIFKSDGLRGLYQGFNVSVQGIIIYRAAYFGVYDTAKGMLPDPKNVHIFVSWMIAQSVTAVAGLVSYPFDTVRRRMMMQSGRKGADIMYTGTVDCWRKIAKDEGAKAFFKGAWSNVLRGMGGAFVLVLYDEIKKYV
UniProt Q13509: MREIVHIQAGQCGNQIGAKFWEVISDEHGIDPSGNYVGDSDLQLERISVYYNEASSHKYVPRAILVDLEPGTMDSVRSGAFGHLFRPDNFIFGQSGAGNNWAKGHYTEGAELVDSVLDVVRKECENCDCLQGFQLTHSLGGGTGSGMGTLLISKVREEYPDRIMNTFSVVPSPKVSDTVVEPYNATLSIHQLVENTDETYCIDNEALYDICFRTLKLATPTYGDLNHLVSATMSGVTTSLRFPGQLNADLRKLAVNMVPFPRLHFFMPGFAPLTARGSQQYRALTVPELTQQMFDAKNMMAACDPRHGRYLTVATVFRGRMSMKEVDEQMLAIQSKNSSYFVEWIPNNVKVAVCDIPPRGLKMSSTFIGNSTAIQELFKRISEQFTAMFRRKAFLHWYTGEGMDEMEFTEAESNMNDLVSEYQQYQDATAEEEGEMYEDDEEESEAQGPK
UniProt P21579: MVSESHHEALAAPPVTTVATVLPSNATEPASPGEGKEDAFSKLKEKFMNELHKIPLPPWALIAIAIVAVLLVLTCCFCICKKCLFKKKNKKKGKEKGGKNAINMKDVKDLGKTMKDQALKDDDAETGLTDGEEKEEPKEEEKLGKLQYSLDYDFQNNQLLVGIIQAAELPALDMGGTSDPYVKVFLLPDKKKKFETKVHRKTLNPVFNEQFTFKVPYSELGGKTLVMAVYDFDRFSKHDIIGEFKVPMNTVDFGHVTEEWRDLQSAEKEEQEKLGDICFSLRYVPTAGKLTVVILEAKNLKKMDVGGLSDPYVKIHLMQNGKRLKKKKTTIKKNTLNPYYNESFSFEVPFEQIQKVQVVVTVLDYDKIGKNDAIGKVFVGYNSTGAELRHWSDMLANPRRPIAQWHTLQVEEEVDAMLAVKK

Experiment [1] concerns the target amyloid-β (Aβ) peptide (human (endogenous in brain tissue)) (UniProt P05067). Kind of experiment: affinity purification with mass spectrometry; co-IP of Aβ from the tris-soluble fraction (500 ug protein) of human frontal cortex (controls, sAD, rpAD; n = 4) on Dynabeads coated with antibodies 4G8 and 6E10, overnight at 4 °C, washes with 0.3% CHAPS; LC-ESI MS/MS of the tryptic digest.

The target is the same in experiment [2]. Kind of experiment: condition: only tris-soluble fraction of sAD brains; affinity purification with mass spectrometry; as a1, tris-soluble fraction of sAD brains only.

These are yes or no findings as the source states them, for the method shown. In cells and extracts the contact can be indirect. These calls come from enrichment with a bait or labelling near it, and not all partners need be listed. For some assays here: No binding means not detected with the bait.

Consider “Band 4.1-like protein 3 (from UniProt Q9Y2J2 1-1087)”, for which the binding result in experiment [1] is listed as “binds”.

With “ATP synthase subunit beta (from UniProt P06576 48-529)”, in experiment [1], the binding result is reported as “binds”.

On to “LanC-like protein 1 (from UniProt O43813 1-399)”, for which the binding entry in experiment [1] is on record as “binds”.

As to “Microtubule-associated protein 1A (from UniProt P78559 1-2803)”, the binding entry in experiment [1] is “binds”.

For the substance “GABA receptor-associated protein-like 2 (from UniProt P60520 1-117)”, the binding result in experiment [1] is listed as “binds”.

On to “ADP/ATP translocase 1 (from UniProt P12235 1-298)”, for which, in experiment [1], the binding entry was “binds”.

As for “Tubulin beta-3 chain (from UniProt Q13509 1-450)”, in experiment [1], the binding result is recorded as “binds”.

“Synaptotagmin-1 (from UniProt P21579 1-422)”: the binding result in experiment [1] is “binds”; in experiment [2], “no binding”.

GTPase KRas (from UniProt P01116 1-189): the binding result in experiment [1] is recorded as “binds”; in experiment [2] it was “no binding”.
